# In all, about 340,000 compounds went through this assay and about 170 (0.05%) were called active. The inconclusive results got no clear call from the source; some entries with a clear call stand among them for comparison. Calls follow the shape of the dose curve; as a rule, active = well fitted inhibition curve with a large enough effect in the signal ratio, with a control signal flat (not every such curve was filed as active); inconclusive = small, poorly fitted or top-dose-only effect, or effect the other way, or a change in a side signal; inactive = flat fitted curve, though single readings scatter; the % refers to the signal ratio. Potencies of inconclusive entries are doubtful fits and often do not repeat.
# Assay: qHTS Assay to Find Inhibitors of Chronic Active B-Cell Receptor Signaling;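 as to activity change, negative = inhibition: plate controls were basal doxycycline-induced cells for no effect and cells given 10 µM MG132 for full effect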
# Conditions: ABC-DLBCL IkBa-CBG/CBR reporter, luminescence ratio (green luciferase fused to IkBa over red control in TMD8 lymphoma cells), 4 h
# Procedure, shortened: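 TMD8 human ABC-DLBCL cells with doxycycline-inducible IκBα–green luciferase fusion and unfused red luciferase, in 0.5% FBS medium; compounds up to 46 uM, 4 h at 37C. Green/red luminescence ratio, filter-overlap corrected, fitted to concentration-response curves.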
# [1] = activity change, negative = inhibition: at 46.1 µM (top of the series)
# Potency is read from the fitted curve at half-maximal effect.
smiles,measurement,setting,value
COCCN=c1scc(C)n1/N=C/C1CC2C=CC1C2 (stereo not drawn),"activity change, negative = inhibition",[1],inconclusive: 2.22%
CCCc1nn2c(=O)cc(COc3cccc(NC(=O)c4ccco4)c3)nc2s1,Potency,[1],"inconclusive: 5.62 µM [falling, partial curve]"
Cc1cc(=O)n2nc(N3CCCC3C(=O)NCCCN3CC(C)CC(C)C3)sc2n1 (stereo not drawn),"activity change, negative = inhibition",[1],inconclusive: 11.7%
CNC(=S)NNC(=O)c1c(C)nc2cc(C)ccn12,"activity change, negative = inhibition",[1],inactive
O=C(CN(Cc1ccc2c(c1)OCO2)C(=O)CSc1nc2ccccc2o1)NC1CCCCC1,"activity change, negative = inhibition",[1],inconclusive: 6.3%
Cc1ccc(NC(=O)c2cccc(NC(=O)/C=C/c3ccco3)c2)cc1C,Potency,[1],"inconclusive: 4.61 µM [rising, full curve]"
Cc1ccccc1NCc1ccc([N+](=O)[O-])s1,"activity change, negative = inhibition",[1],inactive
CCOC(=O)N1CCC(N2C(=O)c3ccccc3C2Nc2ccccc2)CC1 (stereo not drawn),"activity change, negative = inhibition",[1],inconclusive: 25.1%
CCc1ccccc1NS(=O)(=O)c1ccc(OC)c2ncccc12,"activity change, negative = inhibition",[1],inconclusive: -3.84%
same,"activity change, negative = inhibition",at 46.1 µM (top of the series),inactive: -7.13%
CC(=O)Oc1ccc(C(=O)Nc2ccccc2C(=O)N2CCCCC2)cc1,"activity change, negative = inhibition",[1],inconclusive: -9.75%
CCn1c(=O)c2cc(C(=O)N(C)CC(OC)OC)sc2c2ccccc21,Potency,[1],"inconclusive: 17.8 µM [falling, single point]"
CCOC(=O)c1c(-c2ccccc2)oc2ccc(OCC(=O)O)cc12,Potency,[1],"inconclusive: 20 µM [rising, single point]"
COC(=O)c1ccc(CN2CCCC(C(=O)Nc3cccc(-n4cccn4)c3)C2)cc1 (stereo not drawn),Potency,[1],"inconclusive: 31.6 µM [falling, single point]"
Cc1ccc(NC(=O)N2CCC(c3nc4c(nnn4Cc4cccc(Cl)c4)c(=O)[nH]3)CC2)cc1,"activity change, negative = inhibition",[1],inconclusive: -11.6%
N#CCC(=O)Nc1ccc(C(F)(F)F)cc1N1CCOCC1,"activity change, negative = inhibition",[1],inconclusive: -27.2%
COc1cc(/C=N/n2cnnc2)ccc1OCCOc1ccccc1,"activity change, negative = inhibition",[1],inconclusive: 1.08%
COC(=O)c1ccccc1Oc1ccc(NC(=O)C(C)(C)CCl)cc1,"activity change, negative = inhibition",[1],inconclusive: 9.33%
CC(C)OCCCNc1nc2c(-c3ccccc3)nnn2c2ccccc12,"activity change, negative = inhibition",[1],inconclusive: -13.1%
COc1ccc(C(=O)NCCc2nnc3ccc(SCC(=O)N4CCCCC4)nn23)cc1,"activity change, negative = inhibition",[1],inactive
CCCN1C(=O)C(O)(C2COC(C)(C)CC2=O)c2ccccc21 (stereo not drawn),"activity change, negative = inhibition",[1],inactive
O=C1CC(c2cccc([N+](=O)[O-])c2)c2c(ccc3ccccc23)N1 (stereo not drawn),"activity change, negative = inhibition",[1],inconclusive: -10.5%
CCOC(=O)Cn1c(=O)oc2cc(S(=O)(=O)Nc3cccc(C)c3)ccc21,"activity change, negative = inhibition",[1],inconclusive: 18.9%

# Two entries from above, with bars between the fields.
smiles | measurement | setting | value
CCc1ccccc1NS(=O)(=O)c1ccc(OC)c2ncccc12 | activity change, negative = inhibition | [1] | inconclusive: -3.84%
CCOC(=O)c1c(-c2ccccc2)oc2ccc(OCC(=O)O)cc12 | Potency | [1] | inconclusive: 20 µM [rising, single point]

# — PubChem BioAssay AID493014 (National Center for Advancing Translational Sciences (NCATS), 2011)
